According to the supplement of paper PMC6078165:
Values are relative to the signal before dosing, not to a vehicle control; the signal also falls without drug.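 Labels refer to human fibroblasts, largely primary: uterine (C12385, HUF), lung (H6013), bone (Hs27A), adrenal (HADF), skin (WS1), plus mammary HMF and breast cancer-associated Hs343T. Cancer lines are basal-like or mesenchymal-like triple-negative breast cancer. The paper counts as hits responses shifting over 3x the replicate standard deviation. The tissue of the other fibroblasts is not given here.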

Tested on: MDAMB436
Test: relative JC-1 red fluorescence (viability) vs pre-drug, coculture with fibroblast (fraction); higher = more viable cancer cells
Method: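 JC-1 labelled TNBC cells cocultured 1:1 (1,500 cells each) with CellTrace Violet stained primary or stromal fibroblasts in 384-well plates in FluoroBrite medium, treated with one of 42 anticancer drugs at 0.1, 1, 10 or 100 uM. JC-1 red fluorescence (mitochondrial integrity in cancer cells only) was read by plate reader every 8 h for 72 h. Values are normalised to each well's pre-drug value. The stock of one drug was tenfold lower, so its dose labels may be too high.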

CC(C)C[C@H](NC(=O)[C@@H](COC(C)(C)C)NC(=O)[C@H](Cc1ccc(O)cc1)NC(=O)[C@H](CO)NC(=O)[C@H](Cc1c[nH]c2ccccc12)NC(=O)[C@H](Cc1cnc[nH]1)NC(=O)[C@@H]1CCC(=O)N1)C(=O)N[C@@H](CCCNC(=N)N)C(=O)N1CCC[C@H]1C(=O)NNC(N)=O [Goserelin]
relative JC-1 red fluorescence
Details	8 h	16 h	24 h	32 h	40 h	48 h	56 h	64 h	72 h
0.1 µM, coculture fibroblast: C12385	0.7743	0.666	0.63	0.543	0.491	0.466	0.449	0.433	0.43
0.1 µM, coculture fibroblast: H6013	0.767	0.754	0.746	0.732	0.712	0.737	0.703	0.685	0.636
0.1 µM, coculture fibroblast: H6019	0.697	0.6418	0.59724	0.515	0.474	0.456	0.43	0.409	0.393
0.1 µM, coculture fibroblast: H6076	0.737	0.661	0.6381	0.5933	0.5937	0.575	0.5879	0.577	0.575
0.1 µM, coculture fibroblast: H6231	0.753	0.662	0.684	0.599	0.584	0.555	0.536	0.505	0.484
0.1 µM, coculture fibroblast: HADF	0.809	0.701	0.676	0.64	0.621	0.643	0.591	0.59	0.553
0.1 µM, coculture fibroblast: HCFa	0.7723	0.737	0.709	0.683	0.67	0.685	0.629	0.619	0.565
0.1 µM, coculture fibroblast: HCPF	0.7154	0.6585	0.661	0.599	0.593	0.562	0.545	0.52	0.509
0.1 µM, coculture fibroblast: HHSteC	0.8166	0.747	0.725	0.6825	0.6771	0.6834	0.62582	0.602	0.545
0.1 µM, coculture fibroblast: HMF	0.732	0.6695	0.645	0.598	0.585	0.546	0.546	0.516	0.512
0.1 µM, coculture fibroblast: HPFa	0.859	0.765	0.727	0.683	0.668	0.675	0.591	0.557	0.48
0.1 µM, coculture fibroblast: HUF	0.829	0.7	0.661	0.582	0.529	0.505	0.475	0.463	0.456
0.1 µM, coculture fibroblast: Hs5	0.756	0.6884	0.662	0.603	0.586	0.545	0.556	0.516	0.514
0.1 µM, coculture fibroblast: Hs27A	0.892	0.809	0.801	0.801	0.777	0.827	0.735	0.71	0.631
0.1 µM, coculture fibroblast: Hs343T	0.7192	0.6488	0.6126	0.568	0.5461	0.5119	0.50787	0.4999	0.4917
0.1 µM, coculture fibroblast: WS1	0.739	0.68	0.6298	0.543	0.493	0.467	0.444	0.416	0.404
1 µM, coculture fibroblast: C12385	0.806	0.711	0.652	0.584	0.539	0.511	0.488	0.471	0.46
1 µM, coculture fibroblast: H6013	0.86	0.789	0.785	0.788	0.778	0.805	0.769	0.747	0.699
1 µM, coculture fibroblast: H6019	0.7506	0.6639	0.596	0.53	0.486	0.471	0.44	0.4113	0.374
1 µM, coculture fibroblast: H6076	0.755	0.648	0.67	0.647	0.637	0.622	0.627	0.625	0.621
1 µM, coculture fibroblast: H6231	0.747	0.654	0.625	0.575	0.542	0.519	0.509	0.483	0.457
1 µM, coculture fibroblast: HADF	0.833	0.752	0.704	0.677	0.662	0.669	0.625	0.618	0.58
1 µM, coculture fibroblast: HCFa	0.834	0.775	0.714	0.69	0.666	0.676	0.611	0.597	0.545
1 µM, coculture fibroblast: HCPF	0.771	0.682	0.634	0.588	0.563	0.528	0.503	0.491	0.467
1 µM, coculture fibroblast: HHSteC	0.811	0.734	0.693	0.657	0.644	0.652	0.595	0.575	0.516
1 µM, coculture fibroblast: HMF	0.775	0.683	0.647	0.619	0.6	0.573	0.57	0.567	0.563
1 µM, coculture fibroblast: HPFa	0.8851	0.82815	0.7778	0.737	0.72	0.729	0.644	0.614	0.539
1 µM, coculture fibroblast: HUF	0.843	0.726	0.694	0.613	0.556	0.53	0.5	0.482	0.475
1 µM, coculture fibroblast: Hs5	0.794	0.705	0.6721	0.628	0.611	0.575	0.582	0.548	0.535
1 µM, coculture fibroblast: Hs27A	0.882	0.831	0.803	0.827	0.796	0.867	0.788	0.785	0.71
1 µM, coculture fibroblast: Hs343T	0.829	0.755	0.682	0.644	0.611	0.581	0.56	0.536	0.524
1 µM, coculture fibroblast: WS1	0.7836	0.674	0.637	0.564	0.519	0.492	0.468	0.436	0.418
10 µM, coculture fibroblast: C12385	0.827	0.699	0.661	0.564	0.508	0.473	0.45	0.419	0.409
10 µM, coculture fibroblast: H6013	0.848	0.775	0.766	0.76	0.745	0.76	0.728	0.712	0.664
10 µM, coculture fibroblast: H6019	0.74063	0.688	0.644	0.561	0.519	0.498	0.469	0.444	0.417
10 µM, coculture fibroblast: H6076	0.658	0.601	0.584	0.544	0.536	0.509	0.521	0.5149	0.4979
10 µM, coculture fibroblast: H6231	0.736	0.632	0.583	0.5022	0.473	0.4365	0.41831	0.4	0.3864
10 µM, coculture fibroblast: HADF	0.838	0.7672	0.749	0.724	0.7198	0.746	0.691	0.685	0.648
10 µM, coculture fibroblast: HCFa	0.772	0.6876	0.64	0.589	0.555	0.559	0.494	0.485	0.432
10 µM, coculture fibroblast: HCPF	0.727	0.602	0.579	0.511	0.4946	0.456	0.4388	0.4166	0.406
10 µM, coculture fibroblast: HHSteC	0.8309	0.756	0.712	0.665	0.638	0.639	0.575	0.548	0.495
10 µM, coculture fibroblast: HMF	0.649	0.583	0.54	0.5	0.483	0.452	0.459	0.445	0.439
10 µM, coculture fibroblast: HPFa	0.881	0.784	0.758	0.709	0.682	0.688	0.601	0.562	0.475
10 µM, coculture fibroblast: HUF	0.859	0.717	0.688	0.617	0.564	0.536	0.505	0.489	0.482
10 µM, coculture fibroblast: Hs5	0.71	0.668	0.664	0.611	0.593	0.55	0.551	0.505	0.4887
10 µM, coculture fibroblast: Hs27A	0.8363	0.782	0.766	0.734	0.698	0.751	0.653	0.635	0.55
10 µM, coculture fibroblast: Hs343T	0.676	0.626	0.5784	0.529	0.514	0.477	0.467	0.4592	0.455
10 µM, coculture fibroblast: WS1	0.797	0.685	0.664	0.563	0.514	0.482	0.449	0.416	0.406
100 µM, coculture fibroblast: C12385	0.841	0.722	0.729	0.642	0.586	0.559	0.535	0.512	0.498
100 µM, coculture fibroblast: H6013	0.874	0.75	0.741	0.724	0.707	0.723	0.686	0.667	0.625
100 µM, coculture fibroblast: H6019	0.7861	0.7128	0.707	0.64	0.595	0.578	0.537	0.503	0.465
100 µM, coculture fibroblast: H6076	0.7931	0.656	0.6375	0.58913	0.5588	0.526	0.538	0.533	0.529
100 µM, coculture fibroblast: H6231	0.759	0.661	0.619	0.5684	0.529	0.4955	0.4808	0.4636	0.439
100 µM, coculture fibroblast: HADF	0.907	0.844	0.768	0.728	0.695	0.695	0.637	0.618	0.567
100 µM, coculture fibroblast: HCFa	0.8137	0.721	0.688	0.6528	0.6124	0.632	0.562	0.55	0.497
100 µM, coculture fibroblast: HCPF	0.84	0.744	0.6647	0.622	0.57278	0.5252	0.488	0.468	0.436
100 µM, coculture fibroblast: HHSteC	0.884	0.836	0.818	0.787	0.776	0.778	0.716	0.684	0.627
100 µM, coculture fibroblast: HMF	0.81	0.691	0.597	0.554	0.514	0.478	0.467	0.452	0.442
100 µM, coculture fibroblast: HPFa	0.91	0.847	0.792	0.742	0.712	0.713	0.618	0.572	0.48
100 µM, coculture fibroblast: HUF	0.8511	0.763	0.739	0.671	0.6164	0.5909	0.5609	0.538	0.533
100 µM, coculture fibroblast: Hs5	0.826	0.715	0.663	0.595	0.563	0.514	0.52	0.492	0.47
100 µM, coculture fibroblast: Hs27A	0.852	0.807	0.784	0.75	0.728	0.783	0.679	0.648	0.565
100 µM, coculture fibroblast: Hs343T	0.815	0.687	0.595	0.535	0.492	0.45	0.428	0.417	0.405
100 µM, coculture fibroblast: WS1	0.825	0.716	0.725	0.651	0.611	0.587	0.557	0.531	0.509
